Measured values taken from article PMC4021398.
Results are given in words; binding and its absence hold for the method and conditions named. Binding seen in cells or lysates may run through a third protein. Some entries that bind do so weakly or less than the wild type. Where a sequence is shown, tags or fusion partners need not be part of it.

Protein sequences, listed by entry. Tags and fused reporters are not part of them.
UniProt Q13547: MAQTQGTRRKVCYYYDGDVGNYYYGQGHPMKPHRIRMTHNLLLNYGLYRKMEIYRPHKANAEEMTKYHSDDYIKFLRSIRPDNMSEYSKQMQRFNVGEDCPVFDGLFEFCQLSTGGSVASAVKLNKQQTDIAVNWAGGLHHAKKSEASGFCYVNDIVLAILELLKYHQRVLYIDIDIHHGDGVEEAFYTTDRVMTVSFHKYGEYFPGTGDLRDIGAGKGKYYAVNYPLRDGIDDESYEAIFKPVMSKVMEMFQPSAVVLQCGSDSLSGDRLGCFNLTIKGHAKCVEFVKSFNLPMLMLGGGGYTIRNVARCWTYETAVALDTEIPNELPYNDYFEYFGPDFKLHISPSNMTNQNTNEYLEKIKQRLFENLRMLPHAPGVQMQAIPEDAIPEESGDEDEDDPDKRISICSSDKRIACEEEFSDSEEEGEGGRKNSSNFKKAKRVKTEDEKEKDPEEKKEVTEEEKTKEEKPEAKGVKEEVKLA
UniProt O75376: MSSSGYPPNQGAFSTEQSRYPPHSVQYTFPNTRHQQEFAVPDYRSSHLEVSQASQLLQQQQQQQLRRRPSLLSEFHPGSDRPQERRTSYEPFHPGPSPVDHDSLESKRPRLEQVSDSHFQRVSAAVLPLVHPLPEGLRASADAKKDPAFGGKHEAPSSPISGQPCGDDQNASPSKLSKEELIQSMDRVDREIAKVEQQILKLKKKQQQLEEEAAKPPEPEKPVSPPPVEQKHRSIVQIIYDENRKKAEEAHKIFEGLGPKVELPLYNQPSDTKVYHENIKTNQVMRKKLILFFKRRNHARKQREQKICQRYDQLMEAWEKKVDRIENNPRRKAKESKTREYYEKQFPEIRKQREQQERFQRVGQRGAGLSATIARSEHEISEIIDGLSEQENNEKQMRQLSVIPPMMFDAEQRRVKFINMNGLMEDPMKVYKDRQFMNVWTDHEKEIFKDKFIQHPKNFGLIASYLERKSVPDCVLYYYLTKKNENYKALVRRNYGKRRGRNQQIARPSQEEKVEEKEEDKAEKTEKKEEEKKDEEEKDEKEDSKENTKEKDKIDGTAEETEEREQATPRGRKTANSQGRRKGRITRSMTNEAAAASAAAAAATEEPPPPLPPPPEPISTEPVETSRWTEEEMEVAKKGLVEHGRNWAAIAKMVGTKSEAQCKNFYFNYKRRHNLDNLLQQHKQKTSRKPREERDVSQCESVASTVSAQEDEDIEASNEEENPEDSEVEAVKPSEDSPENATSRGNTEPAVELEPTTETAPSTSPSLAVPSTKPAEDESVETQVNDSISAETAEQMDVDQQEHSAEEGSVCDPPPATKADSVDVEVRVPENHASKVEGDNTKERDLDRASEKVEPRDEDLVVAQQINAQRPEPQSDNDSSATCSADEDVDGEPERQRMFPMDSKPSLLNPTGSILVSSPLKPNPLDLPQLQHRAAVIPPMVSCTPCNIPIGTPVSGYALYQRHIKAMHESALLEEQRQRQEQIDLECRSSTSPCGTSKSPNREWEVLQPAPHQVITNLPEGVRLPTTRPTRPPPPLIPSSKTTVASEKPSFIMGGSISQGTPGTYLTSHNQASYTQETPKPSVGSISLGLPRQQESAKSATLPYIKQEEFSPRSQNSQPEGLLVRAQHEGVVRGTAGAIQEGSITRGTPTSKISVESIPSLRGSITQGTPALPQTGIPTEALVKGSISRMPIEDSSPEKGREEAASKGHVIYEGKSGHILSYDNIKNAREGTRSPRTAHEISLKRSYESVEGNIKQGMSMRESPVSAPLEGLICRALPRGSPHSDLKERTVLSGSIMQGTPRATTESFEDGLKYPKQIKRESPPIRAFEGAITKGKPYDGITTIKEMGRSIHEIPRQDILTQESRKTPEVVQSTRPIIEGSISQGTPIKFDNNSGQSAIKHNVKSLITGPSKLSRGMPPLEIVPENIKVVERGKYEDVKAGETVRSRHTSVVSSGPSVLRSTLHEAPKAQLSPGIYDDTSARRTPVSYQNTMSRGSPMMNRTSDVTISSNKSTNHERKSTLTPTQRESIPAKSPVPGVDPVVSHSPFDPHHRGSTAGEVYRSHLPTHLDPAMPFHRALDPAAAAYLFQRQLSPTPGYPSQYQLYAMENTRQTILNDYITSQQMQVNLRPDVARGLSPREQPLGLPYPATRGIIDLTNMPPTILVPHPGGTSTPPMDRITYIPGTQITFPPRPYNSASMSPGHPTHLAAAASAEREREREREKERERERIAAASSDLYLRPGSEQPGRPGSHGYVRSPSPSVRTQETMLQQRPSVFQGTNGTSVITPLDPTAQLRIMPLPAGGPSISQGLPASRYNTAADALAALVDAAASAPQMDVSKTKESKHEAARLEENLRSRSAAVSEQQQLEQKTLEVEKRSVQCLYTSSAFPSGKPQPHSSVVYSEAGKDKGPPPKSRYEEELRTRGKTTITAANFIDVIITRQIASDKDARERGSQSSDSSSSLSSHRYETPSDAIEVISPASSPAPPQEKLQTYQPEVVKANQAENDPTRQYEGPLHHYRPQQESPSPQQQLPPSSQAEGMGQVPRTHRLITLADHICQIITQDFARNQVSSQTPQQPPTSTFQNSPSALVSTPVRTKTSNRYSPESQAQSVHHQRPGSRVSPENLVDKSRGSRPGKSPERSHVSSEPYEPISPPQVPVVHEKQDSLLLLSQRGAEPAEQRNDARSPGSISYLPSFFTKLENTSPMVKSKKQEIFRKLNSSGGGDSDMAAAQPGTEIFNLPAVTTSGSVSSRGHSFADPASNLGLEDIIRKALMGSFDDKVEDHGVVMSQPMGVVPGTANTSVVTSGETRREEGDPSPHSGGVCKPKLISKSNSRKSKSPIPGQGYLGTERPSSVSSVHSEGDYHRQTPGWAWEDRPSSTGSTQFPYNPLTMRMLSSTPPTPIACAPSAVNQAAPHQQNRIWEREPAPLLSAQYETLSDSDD
UniProt Q06330: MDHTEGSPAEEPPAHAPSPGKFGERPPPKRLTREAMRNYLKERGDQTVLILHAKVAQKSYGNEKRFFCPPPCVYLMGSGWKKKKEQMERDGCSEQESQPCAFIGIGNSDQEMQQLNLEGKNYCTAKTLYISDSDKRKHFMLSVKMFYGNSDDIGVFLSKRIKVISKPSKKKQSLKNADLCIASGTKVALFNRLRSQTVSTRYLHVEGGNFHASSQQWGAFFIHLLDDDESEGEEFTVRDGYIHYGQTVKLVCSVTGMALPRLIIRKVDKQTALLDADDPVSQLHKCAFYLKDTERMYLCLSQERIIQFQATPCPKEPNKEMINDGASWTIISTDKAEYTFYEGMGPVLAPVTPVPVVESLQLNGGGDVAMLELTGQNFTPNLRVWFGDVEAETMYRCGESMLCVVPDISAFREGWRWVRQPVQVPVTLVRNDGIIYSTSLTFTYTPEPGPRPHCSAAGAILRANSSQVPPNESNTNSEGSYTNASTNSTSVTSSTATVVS

What follows are substances tested against T1, full-length GST-PTOV1 (human) (UniProt Q86YD1) (assay: pull-down; purified GST-fusion proteins (GST-PTOV1, GST-A domain, GST-B domain) on beads, with extracts of transfected PC-3 cells; bound proteins analysed by SDS-PAGE and Western blotting; only the target purified).
T1 sequence: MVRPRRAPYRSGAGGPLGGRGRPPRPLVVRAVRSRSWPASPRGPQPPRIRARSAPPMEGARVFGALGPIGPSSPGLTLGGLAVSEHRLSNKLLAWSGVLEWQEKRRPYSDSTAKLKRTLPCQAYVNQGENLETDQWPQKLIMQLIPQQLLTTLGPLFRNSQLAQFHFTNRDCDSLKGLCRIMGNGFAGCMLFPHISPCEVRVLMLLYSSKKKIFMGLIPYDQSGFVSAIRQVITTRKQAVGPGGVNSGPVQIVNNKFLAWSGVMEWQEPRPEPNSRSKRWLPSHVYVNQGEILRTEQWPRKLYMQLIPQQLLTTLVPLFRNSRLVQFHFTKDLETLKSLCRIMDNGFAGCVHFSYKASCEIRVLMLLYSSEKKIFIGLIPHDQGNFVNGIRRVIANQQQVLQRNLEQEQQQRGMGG

Row | Substance | binding
1 | FLAG-HDAC1 (from UniProt Q13547 1-482) (enzyme) | binds
2 | FLAG-NCoR (from UniProt O75376 1-2440) | binds
3 | FLAG-RBP-Jκ (from UniProt Q06330 1-500) | binds
